Source: PubChem BioAssay AID1347075 (National Center for Advancing Translational Sciences (NCATS), 2019)
Out of some 400,000 compounds screened, about 5,500 (1.4%) were called active. This list was built around the results that the source calls inconclusive (neither active nor inactive); the mix of calls is not that of the screen. Calls come from the whole dose curve; as a rule, active = well fitted cell-killing curve with a large enough effect; inconclusive = small, poorly fitted or top-dose-only effect, or effect the other way; inactive = flat fitted curve, though single readings scatter. A potency beside an inconclusive call is a rough fit, not a confirmed value. The source holds several records for some structures; these can differ, active in one and inactive in another.

Test: qHTS assay for MDR1-selective chemotherapeutics: Primary screen using the parental adenocarcinoma cell KB-3-1; note: nearly all actives have a fitted effect of over 60% in size
Conditions: KB-3-1 viability, CellTiter-Glo ATP luminescence, 72 h; activity change, negative = cytotoxic: at 46.1 µM (top of the series)
Outline: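 Cytotoxicity measured as CellTiter-Glo luminescence after 72 h at 37 C. Compound titrations were pinned onto drug-naive KB-3-1 parental adenocarcinoma cells grown in DMEM with 10% FBS, and normalized data fitted to concentration-response curves.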
% is set by controls: 0 for no effect and ±100 for the full control effect; potency is the fitted concentration of half-maximal effect.

Compound	Potency	activity change, negative = cytotoxic
Cc1ccc(CN(Cc2ccco2)C(=O)COc2ccccc2C)cc1	inactive	–
O=C1C=C(Nc2ccccc2O)c2ccccc2C1=O	active: 18.4 µM	–
C(=N\n1cnnc1)/c1ccccn1	inactive	–
CCOc1ccccc1N(CC(=O)NCCc1ccc(OC)cc1)S(=O)(=O)c1ccc(C)cc1	inconclusive: 29.1 µM [cytotoxic, single point]	–
Cn1c(=O)[nH]c2cc3ccccc3cc21	active: 1.64 µM	–
COc1ccc(C(=O)NC(=S)NNC(=O)COc2ccccc2)cc1	inconclusive: 29.1 µM [cytotoxic, single point]	–
COc1ccc(-c2[nH]c(-c3cccc(OC)c3)nc2SCC(=O)Nc2ccc3c(c2)OCO3)cc1	inconclusive: 20.6 µM [cytotoxic, single point]	–
CCCCOc1cccc(C(=O)N(Cc2ccccc2)C2CCS(=O)(=O)C2)c1 (configuration not stated)	inconclusive: 14.6 µM [cytotoxic, single point]	–
CCC(=O)NNc1nc2c(C)cccc2s1	inactive	–
Cn1cccc1/C=N/NC(=O)c1ccccn1	inactive	–
CCn1c(=O)c2cc(C(=O)NCCOC)sc2c2ccccc21	inactive	–
COc1ccc(CN(C(=O)c2snc(C(N)=O)c2N)C(C(=O)NC2CCCC2)c2cc(OC)ccc2OC)cc1 (configuration not stated)	inactive	–
CCCCCN1C(C(=O)c2ccccc2)=C(NC(=O)c2ccc(OC)cc2)c2ccccc2S1(=O)=O	inconclusive: 29.1 µM [cytotoxic, single point]	–
Cc1ccc(C(=O)NC(C#N)=C(Cl)Cl)cc1	inconclusive: 29.1 µM [cytotoxic, single point]	–
Cc1ccc(CNC(=O)CCC2CCCN(Cc3cc4ccccc4o3)C2)o1 (configuration not stated)	inconclusive: 29.1 µM [cytotoxic, single point]	–
CCN(c1cccc(C)c1)S(=O)(=O)c1ccc(N2CCCCS2(=O)=O)cc1	inactive	–
CN(CC(=O)Nc1ccc(Br)cc1)Cc1ccccc1	inactive	–
CCc1nnc(NC(=O)c2nc(S(=O)(=O)Cc3ccc(C)cc3)ncc2Cl)s1	active: 16.4 µM	–
CCOC(=O)c1c(C)[nH]c(C(=O)C(C)OC(=O)c2oc3ccccc3c2COC)c1C (configuration not stated)	inconclusive: 6.51 µM [cytotoxic, partial curve]	–
C=C(c1ccc2ccccc2n1)c1cccs1	active: 11.6 µM	–
COc1cc(C2C(C#N)=C(N)N(Nc3ccccc3)C3=C2C(=O)CC(C)(C)C3)ccc1OCc1ccccc1 (configuration not stated)	inconclusive: 23.1 µM [cytotoxic, single point]	–
COC(=O)c1ccc(CSc2nc(-c3ccco3)cc(C(F)(F)F)n2)o1	inconclusive: 29.1 µM [cytotoxic, single point]	–
COc1ccc(-c2ccccc2)cc1NC(=O)c1ccncc1	inconclusive: 20.6 µM [rising, partial curve, poor fit]	–
CCOc1ccccc1N1CCN(c2ncnc3scc(-c4ccc(OC)cc4)c23)CC1	active: 13 µM	–

Compound	Potency	activity change, negative = cytotoxic
Cc1nn(-c2ccccc2)c(C)c1/C=N\N1CCN(c2ccc(Cl)cc2)CC1	inconclusive: 16.4 µM [cytotoxic, single point]	–
Cc1ccc(C)c(NC(=S)c2nc3ccccc3s2)c1	inconclusive: 6.51 µM [cytotoxic, full curve]	–
Cc1cccc(-n2ncc(C(=O)N3CCN(C4CCCCC4)CC3)c2C2CCN(C(=O)OC(C)(C)C)CC2)c1	inactive	–
CCOC(=O)CC(NC(=O)CCc1c(C)nc2c(c(C)nn2-c2ccc(C)c(C)c2)c1C)c1ccc(C)cc1 (configuration not stated)	inactive	–
COc1cc(S(=O)(=O)NCCOC23CC4CC(CC(C4)C2)C3)c(OC)cc1Cl	inconclusive: 20.6 µM [cytotoxic, single point]	–
CC(=O)CC1c2cc(F)ccc2C=C(c2ccsc2)N1c1ccc(-c2cccnc2)cc1 (configuration not stated)	inconclusive: 29.1 µM [cytotoxic, single point]	–
C[C@H](CO)N1C[C@H](C)[C@@H](CN(C)C(=O)Nc2ccccc2)Oc2c(NS(=O)(=O)c3ccc(F)cc3)cccc2C1=O	inactive	–
O=C(c1ccoc1)N1CCC2(CC1)Oc1ccc(F)cc1C(=O)C21CC(c2ccccc2)=NO1 (configuration not stated)	inconclusive: 23.1 µM [cytotoxic, single point]	–
CC1(C(=O)Nc2ccc3c(c2)OCO3)CCN1C(=O)Cc1ccc(-c2ccccc2)cc1 (configuration not stated)	active: 11.6 µM	–
Cc1ccc(NC(=O)C2C3CCC(O3)C2C(=O)O)cc1Cl (configuration not stated)	inconclusive: 20.6 µM [cytotoxic, single point]	–
N#Cc1cc(C(=O)Cc2ccccc2)c[nH]1	inconclusive: 0.0058 µM [cytotoxic, full curve]	–
Fc1ccccc1/C=N/Nc1ncnc2nc[nH]c12	inconclusive: 18.4 µM [cytotoxic, single point]	–
Cc1ccc(S(=O)(=O)c2c(COC(=O)c3cccc(Cl)c3)c(-c3ccccc3)nn2C)cc1	inconclusive: 18.4 µM [cytotoxic, partial curve, poor fit]	–
COCC(=O)n1nc(-c2ccccc2)nc1NCc1cccs1	inconclusive: 4.61 µM [rising, full curve]	–
Nc1ccc(C(=O)N/N=C/c2cn(Cc3ccccc3)c3ccccc23)cc1	inconclusive: 6.51 µM [cytotoxic, partial curve, poor fit]	–
COc1cccc(-c2cnc3c(NC=O)cc(-c4ccc(OC)cc4OC)cn23)c1	active: 0.206 µM	–
Cc1ccc2nc3n(c2c1)CCCN3	inconclusive: 29.1 µM [cytotoxic, single point]	–
CCn1cc(C(=O)OCC(=O)NCc2ccc3c(c2)OCO3)c(=O)c2ccc(C)nc21	–	inconclusive: -33.8% [cytotoxic]
CC(C)(C)c1ccc(-c2nnc(NC(=O)Nc3ccc4ccccc4c3)s2)cc1	–	inconclusive: 54.4%
Cc1ccc2nc(-c3ccc(C)c(NC(=O)COc4ccccc4Cl)c3)oc2c1	inconclusive: 18.4 µM [rising, single point]	–
O=C(NCCC1=CCCCC1)C1CCN(C(=O)Cc2ccccc2)CC1	inactive	–
Cc1ccc(-c2c(C#N)c(N)n3c(nc4ccccc43)c2C#N)cc1	active: 13 µM	–
COc1cc(/C=C2\SC(=S)N(CCC(=O)NC3CCCC3)C2=O)cc(OC)c1OC	inconclusive: 16.4 µM [cytotoxic, partial curve, poor fit]	–
CC(=O)c1c(C)[nH]c(C(=O)CN(C)CC(=O)Nc2ccccc2Cl)c1C	inactive	–

Pulled one by one from the entries so far:
Compound	Potency	activity change, negative = cytotoxic
COCC(=O)n1nc(-c2ccccc2)nc1NCc1cccs1	inconclusive: 4.61 µM [rising, full curve]	–
CC(C)(C)c1ccc(-c2nnc(NC(=O)Nc3ccc4ccccc4c3)s2)cc1	–	inconclusive: 54.4%
CCOC(=O)CC(NC(=O)CCc1c(C)nc2c(c(C)nn2-c2ccc(C)c(C)c2)c1C)c1ccc(C)cc1 (configuration not stated)	inactive	–
Cc1ccc2nc3n(c2c1)CCCN3	inconclusive: 29.1 µM [cytotoxic, single point]	–

Later entries

Compound	Potency	activity change, negative = cytotoxic
C[C@@H]1CN([C@@H](C)CO)C(=O)c2cc(Br)cnc2O[C@@H]1CN(C)S(=O)(=O)c1ccc(F)cc1	inactive	–
CC(C)NC(=O)CSc1nc2ccccc2n1CC(=O)N1CCc2ccccc21	inactive	–
CC(Cc1c[nH]c2ccccc12)C(=O)N1CCN(c2ccccc2F)CC1 (configuration not stated)	inactive	–
COc1ccc2ncn(-c3ccccc3)c2c1	inactive	–
Cc1ccc(-c2cnc(C3CC3)o2)cc1S(=O)(=O)Nc1ccccc1	active: 7.31 µM	–
S=C(Nc1ccccc1Oc1ccccc1)Nc1cccc(Cl)c1Cl	active: 23.1 µM	–
FC(F)(F)c1ccc(NC(=S)NC2CCCCC2)cc1	inconclusive: 29.1 µM [cytotoxic, single point]	–
CC(c1ccccc1)N1CCn2c(nc3cc(NC(=O)NC4CCCCC4)ccc32)C1 (configuration not stated)	inconclusive: 35.5 µM [cytotoxic, single point]	–
O=C(CC[C@H]1O[C@@H](n2cnc3c(NC(=O)c4ccccc4)ncnc32)[C@H](O)[C@@H]1O)NCc1nc2ccccc2[nH]1	inactive	–
CC(C)(CNC(=O)c1ccc(NS(=O)(=O)c2ccc(Br)cc2)cc1)N1CCOCC1	inconclusive: 20.6 µM [cytotoxic, partial curve, poor fit]	–
Cc1cc(OC(=O)c2cccc(F)c2)c([N+](=O)[O-])c(=O)[nH]1	inactive	–
COC(=O)c1cn(C(=O)c2ccccc2Cl)c2ccccc12	inconclusive: 29.1 µM [cytotoxic, single point]	–
Cc1cccc(-n2ncc(C(=O)N3CCN(c4ccc(Cl)cc4)CC3)c2C2CCN(C(=O)OC(C)(C)C)CC2)c1	inconclusive: 18.4 µM [cytotoxic, partial curve]	–
CCN(C(=O)COC(=O)CCOc1ccc(C(C)(C)C)cc1)c1c(N)n(Cc2ccccc2)c(=O)[nH]c1=O	active: 25.9 µM	–
COc1ccc(-c2ccc(Nc3ccc(S(=O)(=O)N4CCCC4)cc3)nn2)cc1OC	inconclusive: 29.1 µM [cytotoxic, single point]	–
Cn1nc(C(=O)NCc2ccc(Cl)cc2)c2c1-c1ccccc1S(=O)(=O)C2	inactive	–
Cc1cccc(NC(=O)CSCC(=O)N(CCC(C)C)c2c(N)n(Cc3ccccc3)c(=O)[nH]c2=O)c1	inconclusive: 20.6 µM [cytotoxic, single point]	–
CCCc1ccc(C(=O)CCC(=O)NNC(=O)c2ccncc2)cc1	active: 10.3 µM	–
COc1ccc(OC)c(CNC(=O)c2cc3c(-c4ccc(OC)c(OC)c4)nn(C)c3s2)c1	inactive	–
Cc1nc2c(-c3ccccc3)cnn2c(N2CCOCC2)c1C	inconclusive: 23.1 µM [cytotoxic, partial curve, poor fit]	–
Cc1ccc(NC(=O)c2ccc(-c3cccc(Cl)c3C)o2)cc1	inconclusive: 16.4 µM [cytotoxic, partial curve, poor fit]	–
Cc1cc(C(=O)Nc2nc3c(s2)CCCC3)cs1	inactive	–
Cc1ccc(S(=O)(=O)NC2c3cccc4cccc(c34)C2Sc2nc(C)cc(C)n2)cc1 (configuration not stated)	inactive	–
Cc1ccc2nc(-c3ccncc3)c(NC3CCCCC3)n2c1	inconclusive: 20.6 µM [cytotoxic, partial curve]	–
